Results as given in PubChem BioAssay AID256 (DTP/NCI, 2004).
The list does not hold the whole screen: it covers a few groups of compounds. Other doses and runs of a compound may be missing. T/C is the treated group as % of the vehicle group. Some doses have a count of surviving animals in place of a T/C: the source holds a T/C of zero for them, seemingly a mark for toxic or unscored doses. Some survivor counts are full or nearly so, which does not show that the dose was tolerated: survival well below the control is almost never listed, so the zero probably covers shortened survival too. Counts of survivors are from the toxicity check (mostly the fifth day) where no day follows; animals may have died later. Schedule codes are those of the source, read here as Q, the interval in days (D) or hours (H), X, the number of doses. Some entries were tested several times; the values are given in rising order. For survival time, this PubChem deposit counts one and a half times the control or more as active, and values a quarter to a half above the control carry no call in these data; other NCI protocols may use other cut-offs. Counts like (3×) stand for listed records that agree. Some T/C values are marked as having no survivor count here; that says nothing about deaths at the dose. Some T/C values carry the count of animals alive at the toxicity check (mostly the fifth day); without a count or a note in brackets, all were alive then.

System: CD2F1 mice, L1210 leukemia ip, survival T/C
Assay: NCI In Vivo Anticancer Drug Screen. Data for tumor model L1210 Leukemia (intraperitoneal) in CD2F1 (CDF1) mice
Conditions: T/C endpoint: mean survival time, higher T/C = longer survival
Outline: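 Activity against a transplanted murine tumor was judged by comparing the compound group with a vehicle group. The outcome in the treated animals was divided by that in the controls.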

[1] = dose: 62.5 mg/kg/injection, schedule: Q01DX001 (ip), vehicle: DMSO
[2] = dose: 125.0 mg/kg/injection, schedule: Q01DX001 (ip), vehicle: DMSO
[3] = dose: 250.0 mg/kg/injection, schedule: Q01DX001 (ip), vehicle: DMSO
[4] = dose: 500.0 mg/kg/injection, schedule: Q01DX001 (ip), vehicle: DMSO
[5] = dose: 1000.0 mg/kg/injection, schedule: Q01DX001 (ip), vehicle: DMSO
[6] = dose: 25.0 mg/kg/injection, schedule: Q01DX001 (ip), vehicle: DMSO
[7] = dose: 50.0 mg/kg/injection, schedule: Q01DX001 (ip), vehicle: DMSO
[8] = dose: 100.0 mg/kg/injection, schedule: Q01DX001 (ip), vehicle: DMSO
[9] = dose: 200.0 mg/kg/injection, schedule: Q01DX001 (ip), vehicle: DMSO
[10] = dose: 400.0 mg/kg/injection, schedule: Q01DX001 (ip), vehicle: DMSO
[11] = dose: 0.75 mg/kg/injection, schedule: Q01DX009 (ip), vehicle: Klucel (hydroxypropylcellulose) (HPC)
[12] = dose: 6.25 mg/kg/injection, schedule: Q01DX009 (ip), vehicle: Klucel (hydroxypropylcellulose) (HPC)
[13] = dose: 12.5 mg/kg/injection, schedule: Q01DX009 (ip), vehicle: Klucel (hydroxypropylcellulose) (HPC)
[14] = dose: 25.0 mg/kg/injection, schedule: Q01DX009 (ip), vehicle: Klucel (hydroxypropylcellulose) (HPC)
[15] = dose: 50.0 mg/kg/injection, schedule: Q01DX009 (ip), vehicle: Klucel (hydroxypropylcellulose) (HPC)
[16] = dose: 100.0 mg/kg/injection, schedule: Q01DX009 (ip), vehicle: Klucel (hydroxypropylcellulose) (HPC)
[17] = dose: 100.0 mg/kg/injection, schedule: Q04DX003 (ip), vehicle: saline sonified
[18] = dose: 200.0 mg/kg/injection, schedule: Q04DX003 (ip), vehicle: saline sonified
[19] = dose: 400.0 mg/kg/injection, schedule: Q04DX003 (ip), vehicle: saline sonified
[20] = dose: 62.5 mg/kg/injection, schedule: Q01DX001 (ip), vehicle: distilled water + Tween-80
[21] = dose: 125.0 mg/kg/injection, schedule: Q01DX001 (ip), vehicle: distilled water + Tween-80
[22] = dose: 250.0 mg/kg/injection, schedule: Q01DX001 (ip), vehicle: distilled water + Tween-80
[23] = dose: 500.0 mg/kg/injection, schedule: Q01DX001 (ip), vehicle: distilled water + Tween-80

CS(=O)(=O)OCC1CCOP(=O)(N(CCCl)CCCl)N1 (stereo not drawn)
T/C (dose: 15.63 mg/kg/injection, schedule: Q01DX001 (ip), vehicle: DMSO): 103 and 106 % of control
T/C (dose: 31.25 mg/kg/injection, schedule: Q01DX001 (ip), vehicle: DMSO): 101 and 103 % of control
T/C [1]: 97 and 100 % of control
T/C [2]: 97 and 103 % of control
T/C [3]: 101 and 103 % of control
T/C [4]: 100 and 101 % of control
T/C [5]: 95 and 100 % of control

CC(CO)COP(=O)(N(CCCl)CCCl)N1CC1 (stereo not drawn)
T/C (dose: 15.62 mg/kg/injection, schedule: Q01DX001 (ip), vehicle: DMSO): 95 % of control
T/C (dose: 31.3 mg/kg/injection, schedule: Q01DX001 (ip), vehicle: DMSO): 95 % of control
T/C [1]: 97 % of control
T/C [2]: 95 % of control
T/C [3]: 97 % of control
T/C [4]: 104 % of control

CN(C)P(=O)(O)N(CCCl)CCCl.NC1CCCCC1
T/C [6]: 102 % of control
T/C [7]: 102 % of control
T/C [8]: 97 % of control
T/C [2]: 98 % of control
T/C [9]: 105 % of control
T/C [3]: 104 % of control
T/C [10]: 105 % of control
T/C [4]: 107 % of control [5 of 6 alive]
T/C (dose: 600.0 mg/kg/injection, schedule: Q01DX001 (ip), vehicle: DMSO): 105 % of control
survivor count [5]: 0 of 6

Cc1cc(N(CCBr)CCBr)ccc1N
T/C (dose: 0.18 mg/kg/injection, schedule: Q01DX009 (ip), vehicle: Klucel (hydroxypropylcellulose) (HPC)): 117 % of control
T/C (dose: 0.37 mg/kg/injection, schedule: Q01DX009 (ip), vehicle: Klucel (hydroxypropylcellulose) (HPC)): 108 % of control
T/C [11]: 101 % of control
survivor count [11]: 6 of 6
survivor count (dose: 1.5 mg/kg/injection, schedule: Q01DX009 (ip), vehicle: Klucel (hydroxypropylcellulose) (HPC)): 5 of 6
survivor count (dose: 3.0 mg/kg/injection, schedule: Q01DX009 (ip), vehicle: Klucel (hydroxypropylcellulose) (HPC)): 0 of 6
survivor count [12]: 1 of 6
survivor count [13]: 0 of 6
survivor count [14]: 0 of 6
survivor count [15]: 0 of 3
survivor count [16]: 0 of 3
survivor count (dose: 200.0 mg/kg/injection, schedule: Q01DX009 (ip), vehicle: Klucel (hydroxypropylcellulose) (HPC)): 0 of 3

CCCCOP(=O)(CCC)OCCCC
T/C (dose: 25.0 mg/kg/injection, schedule: Q01DX009 (ip), vehicle: saline): 96 % of control [survivor count not shown]
T/C (dose: 50.0 mg/kg/injection, schedule: Q01DX009 (ip), vehicle: saline): 98 % of control [survivor count not shown]
T/C (dose: 100.0 mg/kg/injection, schedule: Q01DX009 (ip), vehicle: saline with Tween-80): 100 % of control [survivor count not shown]

ICCN(CCI)c1cccc2ccccc12
T/C (dose: 3.12 mg/kg/injection, schedule: Q01DX009 (ip), vehicle: Klucel (hydroxypropylcellulose) (HPC)): 117 % of control (2×)
T/C [12]: 100 and 120 % of control
T/C [13]: 98 and 114 % of control
T/C [14]: 114 % of control
survivor count [14]: 5 of 6
T/C [15]: 108 % of control
survivor count [15]: 2 of 6
T/C [16]: 96 % of control
survivor count [16]: 1 of 6

O=[N+]([O-])C/C(=N\Nc1ccc([N+](=O)[O-])cc1[N+](=O)[O-])c1ccccc1
T/C [17]: 97 % of control
T/C [18]: 106 % of control
T/C [19]: 96 % of control

CC(C)([N+](=O)[O-])C(C)(C)[N+](=O)[O-]
T/C (dose: 10.0 mg/kg/injection, schedule: Q01DX009 (ip), vehicle: saline with Tween-80): 93 % of control [5 of 6 alive]
T/C (dose: 20.0 mg/kg/injection, schedule: Q01DX009 (ip), vehicle: saline with Tween-80): 95 % of control
T/C (dose: 20.0 mg/kg/injection, schedule: Q04DX003 (ip), vehicle: saline with Tween-80): 98 % of control
T/C (dose: 40.0 mg/kg/injection, schedule: Q01DX009 (ip), vehicle: saline with Tween-80): 90 % of control [4 of 6 alive]
T/C (dose: 40.0 mg/kg/injection, schedule: Q04DX003 (ip), vehicle: saline with Tween-80): 92 % of control
survivor count (dose: 80.0 mg/kg/injection, schedule: Q04DX003 (ip), vehicle: saline with Tween-80): 3 of 6

CC(C)(C)C1CNP(=O)(N(CCCl)CCCl)OC1 (stereo not drawn)
T/C (dose: 15.63 mg/kg/injection, schedule: Q01DX001 (ip), vehicle: distilled water + Tween-80): 97 % of control
T/C (dose: 31.25 mg/kg/injection, schedule: Q01DX001 (ip), vehicle: distilled water + Tween-80): 97 % of control
T/C [20]: 98 % of control
T/C [21]: 97 % of control
T/C [22]: 97 % of control [5 of 6 alive]
survivor count [23]: 3 of 6

COc1ccc2c(c1)C13CCN(C)C(C2)C1CC(C)=C(C)C3.O=[N+]([O-])c1cc([N+](=O)[O-])c(O)c([N+](=O)[O-])c1 (stereo not drawn)
T/C [17]: 91 % of control [survivor count not shown]
T/C [18]: 91 % of control [survivor count not shown]
T/C [19]: 93 % of control [survivor count not shown]

Cc1n/c(=N\[N+](=O)[O-])[nH][nH]1
T/C (dose: 100.0 mg/kg/injection, schedule: Q01DX001 (ip), vehicle: saline with Tween-80): 94 % of control [survivor count not shown]
T/C (dose: 200.0 mg/kg/injection, schedule: Q01DX001 (ip), vehicle: saline with Tween-80): 90 % of control [survivor count not shown]
T/C (dose: 400.0 mg/kg/injection, schedule: Q01DX001 (ip), vehicle: saline with Tween-80): 90 % of control [survivor count not shown]

NNP(=O)(OCc1ccccc1)N(CCCl)CCCl (stereo not drawn)
T/C [6]: 101 % of control
T/C [7]: 94 % of control
T/C [8]: 91 % of control
T/C [9]: 95 % of control
T/C [10]: 97 % of control

O=P1(N(CCCl)CCCl)OCC2CN21 (stereo not drawn)
T/C (dose: 7.8 mg/kg/injection, schedule: Q01DX001 (ip), vehicle: distilled water + Tween-80): 104 % of control
T/C (dose: 15.6 mg/kg/injection, schedule: Q01DX001 (ip), vehicle: distilled water + Tween-80): 104 % of control
T/C (dose: 31.3 mg/kg/injection, schedule: Q01DX001 (ip), vehicle: distilled water + Tween-80): 105 % of control
T/C [20]: 98, 119, 120 % of control
T/C [21]: 91 % of control
survivor count [21]: 0 of 4 and 3 of 6
T/C [22]: 95 % of control
survivor count [22]: 0 of 4
T/C [23]: 106 % of control
survivor count [23]: 0 of 4

CN(C)P(=O)(OCc1ccccc1)N(CCCl)CCCl (stereo not drawn)
T/C (dose: 25.0 mg/kg/injection, schedule: Q01DX001 (ip), vehicle: other): 106 % of control
T/C (dose: 50.0 mg/kg/injection, schedule: Q01DX001 (ip), vehicle: other): 102 % of control
T/C (dose: 100.0 mg/kg/injection, schedule: Q01DX001 (ip), vehicle: other): 96 % of control
T/C (dose: 200.0 mg/kg/injection, schedule: Q01DX001 (ip), vehicle: other): 87 % of control
survivor count (dose: 400.0 mg/kg/injection, schedule: Q01DX001 (ip), vehicle: other): 0 of 6
